{
  "source": "patent US20090053745A1",
  "target": "Snapin(1-68) (α-GFP)",
  "test": "GST affinity chromatography of cell lysate, Western blot with α-GFP",
  "note": "Results are given in words; binding and its absence hold for the method and conditions named. Tags and fused reporters may be left off the sequences shown.",
  "data": [
    {"binder": "GST-cypin (enzyme, UniProt Q9WTT6 1-454, looked up, not shown: a dimerising Fc or GST) MCAARRRELALIFRGTFVHSTWTCPMEVLRDHLLGVSDSGKIVFLEESSQQEKLAKEWCFKPCEIRELSHHEFFMPGLVDTHIHAPQYAFAGSNVDLPLLDWLNKYTFPTEKRFQSTDVAEEVYTRVVRRTLKNGTTTACYFGTIHTDSSLILAEITDKFGQRAFVGKVCMDLNNTVPEYKETTEESVKETERFVSEMLQKNYSRVKPIVTPRFSLSCTETLMSELGNIAKTHDLYIQSHISENREEIEAVKSLYPGYKNYTDVYDKNNLLTNKTVMAHGCYLSEEELNVFSERGASIAHCPNSNLSLSSGLLNVLDVLKHKVKIGLGTDVAGGYSYSMLDAIRRAVMVSNVLLINKVNEKSLTLKEVFRLATLGGSQALGLDREIGNFEVGKDFDALLINPRASDSPIDLFCGDFVGDISEAVIQKFLYLGDDRNIEEVYVGGKQVVPFSSSV", "values": [
      {"measurement": "binding", "value": "no binding"}
    ]}
  ]
}
